## Results of single-concentration screens

Each number is a percent effect as filed.
The record does not define 0% and 100%; most values in the screen are far below 50% and negative numbers occur (in some assays of this library far below -100).
This is an unselected part of the compounds tested.

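Whole-parasite assay of Trypanosoma brucei over 72 hours; the read-out is not stated. Tested at 30 µM. Higher reads as stronger inhibition (inferred: compounds with an IC50 in retests scored well above the rest). Values scatter widely below zero; nearly all retest evidence comes from the higher of the two concentrations used. Size under these conditions: about 64,000 compounds, about 940 of them at 50% or above in at least one test.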

With CC(C)c1nnc2sc(CC3CN(C(C)C)CCO3)nn12 (stereo unspecified) the screen gave 13.91%.
With CCn1nnc2c1C(COC)CN(Cc1ccco1)C2 (stereo unspecified) the screen gave -37.54%.
With Cc1csc(CN2CC[C@@](O)(C3CCOCC3)[C@H](C)C2)n1 the screen gave -15.37%.
With Cc1ccccc1OCCN1CCCC1CS(N)(=O)=O (stereo unspecified) the screen gave -8.524%.
With CCN1CCC(CC(=O)N[C@H](C(=O)O)c2cccc(F)c2F)CC1 the screen gave -26.75%.
With Cc1nn2cccnc2c1C(=O)N1CCCC(n2ccnc2)C1 (stereo unspecified) the screen gave 7.531%.
With Cn1cc(CN2CCC3(CCCCN3S(C)(=O)=O)CC2)cn1 the screen gave -8.155%.
With O=C(c1cnccn1)N1CCCC(c2cccc(-n3ccnc3)n2)C1 (stereo unspecified) the screen gave 1.737%.
With O=C(O)C(F)(F)F.O=C(O)C(F)(F)F.O=C(O)C(F)(F)F.c1coc(CN2CCOC3(COCCN(Cc4ccncc4)C3)C2)c1 (stereo unspecified) the screen gave -11.34%.
With CC(C)NC(=O)N1CCCn2cnc(CN3CCCC3=O)c2C1 the screen gave -22.5%.
With Cc1nonc1CN1CC[C@@](O)(C2CCC2)[C@H](C)C1 the screen gave -61.55%.
With COCCN1CCC(CN(C)c2ncnc3c2c(C)nn3C)C1 (stereo unspecified) the screen gave -7.949%.
With CCN1CCNC(=O)C12CCN(S(=O)(=O)c1ccc(OC)cc1)CC2 the screen gave -23.81%.
With CCN(C)C(=O)c1coc(COc2ccccc2)n1 the screen gave -50.42%.
With CN(C)S(=O)(=O)c1ccc(CNc2ccc(Cl)cn2)cc1 the screen gave -14.01%.
With CC(C)OCc1ccccc1CNC(=O)C(C)(C)C the screen gave -18.26%.
With Cc1ncsc1C(=O)N1CCN(CCC(C)C)CC1 the screen gave -12.08%.
With Cn1ncc2c(N3CCCC(C)(O)C3)nc(-c3cccnc3)nc21 (stereo unspecified) the screen gave -17.89%.
With O=C(NCCCNc1ccccc1)c1scnc1Cl the screen gave 38.59%.
With COc1ccc(Cl)cc1-c1nc(N)nc(N(C)C)n1 the screen gave -18.21%.
With COCCCC1CCCN(C(=O)CCc2csc(N)n2)C1 (stereo unspecified) the screen gave -8.563%.
With CC1(C)CNC(=O)CN(C(=O)Cc2ccccc2)C1 the screen gave -12.88%.
With [H][C@@]12CN(Cc3nccn3C)C[C@]1([H])OCCN2c1ncccn1 the screen gave -5.488%.
With Cc1cc(C)cc(C(=O)Nc2cn[nH]c2)c1 the screen gave 6.425%.
With CC(NC(=O)c1cc(Br)c2c(c1)OCCO2)C(N)=O (stereo unspecified) the screen gave -43.12%.
With Cc1cccc(CN(C)Cc2nc3c(cnn3C)c(=O)[nH]2)c1 the screen gave 4.191%.
With COC(=O)CN(C(=O)c1cc(C(C)C)no1)c1cccc(F)c1 the screen gave -1.129%.
With COc1cc(C(=O)NCCc2ccc(OC)c(OC)c2)on1 the screen gave 8.881%.
With O=C(CCc1ccccc1Br)NS(=O)(=O)c1ccc2c(c1)OCCO2 the screen gave -8.071%.
With O=C(O)C(F)(F)F.[H][C@@]12CC(COCc3cccnc3)C[C@@]1([H])N(C(=O)N(C)C)CCO2 (stereo partly specified) the screen gave -49.87%.
With O=C(O)C(F)(F)F.[H][C@@]12CN(C(=O)c3ccoc3)C[C@]1([H])OCCN2C the screen gave 27.02%.
With CC(=O)N1CCc2nc3sc(C(N)=O)c(N)c3c(C(F)(F)F)c2C1 the screen gave -6.468%.
With CN(Cc1ccco1)Cc1ccccc1CNC(=O)c1ccc[nH]1 the screen gave 8.664%.
With Cc1nc(N2CCCC2)nc2c1CCN(C(=O)NC(C)C)CC2 the screen gave -46.54%.
With CCN(CCCNc1ncnc2cc(F)c(F)cc12)S(C)(=O)=O the screen gave -39.63%.
With CCn1nc(C)c2nc(C)nc(N(C)Cc3ccco3)c21 the screen gave -30.83%.
With CC(=O)N1CCCC1c1ccnc(Nc2cncnc2)n1 (stereo unspecified) the screen gave -7.208%.

5 of the entries, repeated:

SMILES,percent effect
O=C(O)C(F)(F)F.[H][C@@]12CN(C(=O)c3ccoc3)C[C@]1([H])OCCN2C,27.02
Cc1csc(CN2CC[C@@](O)(C3CCOCC3)[C@H](C)C2)n1,-15.37
CC(C)NC(=O)N1CCCn2cnc(CN3CCCC3=O)c2C1,-22.5
COCCN1CCC(CN(C)c2ncnc3c2c(C)nn3C)C1 (stereo unspecified),-7.949
Cc1nc(N2CCCC2)nc2c1CCN(C(=O)NC(C)C)CC2,-46.54

The values are deposited in ChEMBL (CHEMBL3988442, “University of Dundee, Small-Polar-MMV Screening Library” (2021)).